The record followed here is article PMC12040169 (PLOS Biology, 2025).

SMILES strings stand for the structures. Some of the results follow.

The test system of the assay is T1, CTL2-GFP (C. trachomatis L2/434/Bu, GFP-expressing).
T1 construct: L2/434/Bu, GFP-expressing
Set-up: species or system HeLa; Intracellular C. trachomatis growth in HeLa cells, bulk GFP fluorescence relative to DMSO. As to conditions: bulk GFP, single well; 28.5 h, 10 µM; inhibitor.
On to `N#Cc1c(-c2ccccc2)noc1C/C=N/O` [CBK007357], for which the “% of control remaining” value came to 100%. Regarding `O=C(CN1CCCC1=O)N1CCN(C(=O)c2ccc(Br)o2)CC1` [CBK034530], the “% of control remaining” value is listed as 123.777%.

Turning to `CCN(CC)C(=O)C1CCCN(C(=O)Nc2ccc3[nH]ccc3c2)C1` (stereo not drawn) [CBK156133], the “% of control remaining” value is reported as 126.435%. With `CSCCN1CCN(c2nccnc2OCC2COc3ccccc3O2)CC1` (stereo not drawn) [CBK082806T], the “% of control remaining” value was 104.937%. `O=C(O)c1cc(NS(=O)(=O)c2ccc([N+](=O)[O-])cc2)ccc1O` [CBK296077]: the “% of control remaining” value is 106.086%. For `Cc1cc(C)nc(Nc2n[nH]c(-c3ccc(NC(=O)Nc4ccccc4)cc3)n2)n1` [CBK267076] the value was 150.688%; for `CN1C(=S)SC(C)(N(O)C(=O)NC2CCCCC2)C1(C)C` (stereo not drawn) [CBK008916], 94.7773%. Regarding `O=C(Nc1ccccc1)N1Cc2nc[nH]c2C[C@H]1c1nc(-c2ccccc2)no1` [CBK288997], the “% of control remaining” value is 101.634%.

With `O=C(CN1CCOCC1)N1CCN(C(=O)c2ccc(C(F)(F)F)cc2)C1` [CBK051555C], the “% of control remaining” value amounted to 144.412%.

Regarding `CCN(CC)C(=O)c1sc2ncccc2c1NS(=O)(=O)Cc1ccccc1[N+](=O)[O-]` [CBK050022], the “% of control remaining” value turned out to be 129.574%. `CNC(=O)Cn1nc(C)c2cnn(-c3ccccc3)c2c1=O` [CBK287669]: the “% of control remaining” value turned out to be 127.813%. As for `Cc1cc(N2CCN(C(=O)CCc3ccsc3)CC2)nc(C(C)C)n1` [CBK305710], the “% of control remaining” value turned out to be 76.4616%. With `CC1CCCN(CC(C)(C)NC(=O)c2cc(C(F)(F)F)nn2C)C1` (stereo not drawn) [CBK281598], the “% of control remaining” value amounted to 162.697%. Take `CCC(C(=O)Nc1sc2c(c1C(N)=O)CCCCCC2)c1ccccc1` (stereo not drawn) [CBK265383]: the “% of control remaining” value was 115.488%. As to `COc1ccccc1-c1nccnc1NCc1ccc(C(F)(F)F)cc1` [CBK036788], the “% of control remaining” value was 182.66%. For `O=C(c1ccc(F)cc1)N1C[C@@H]2C[C@H](C1)c1ccc(-c3cncnc3)c(=O)n1C2` [CBK289185], the “% of control remaining” value was determined as 134.839%. For the compound `Nn1c(S)nnc1Cn1nnc2ccccc21` [CBK268233], the “% of control remaining” value is recorded as 98.1431%. Consider `Fc1ccc(CN2CCC(n3cnc4cccnc43)CC2)cc1` [CBK283580], for which the “% of control remaining” value is on record as 130.882%. As for `Cc1ccc(-c2cc(-c3ccccc3O)nc(N/N=C/c3cccnc3)n2)cc1` [CBK262308], the “% of control remaining” value was determined as 105.046%. Under `CN1CCN(CCCNC(=O)N(C)C2CCN(C)C2)CC1` (stereo not drawn) [CBK155993] stands 106.196%; under `COCc1ccc(CN2CCC3(CCc4ccccc4C(=O)N3)C2)o1` (stereo not drawn) [CBK284651], 94.475%. Regarding `Cc1cc(CNC(=O)N2CCN(CCc3ccccc3)CC2)no1` [CBK158898], the “% of control remaining” value was 116.049%. On to `CCCCOc1ccc(C(N)CC(=O)O)cc1` (stereo not drawn) [CBK262915], for which the “% of control remaining” value was determined as 113.273%.

On to `COc1ccc(C2CCN(Cc3cccnc3)CC2)cc1` [CBK283564], for which the “% of control remaining” value turned out to be 127.585%.

Take `CN(C)c1ccccc1C1(O)CN2CCC1CC2` (stereo not drawn) [CBK022620]: the “% of control remaining” value stood at 137.38%.

Consider `O=C(O)CC/C(=N\Nc1ccc([N+](=O)[O-])cc1)c1ccc(F)cc1` [CBK017075], for which the “% of control remaining” value is recorded as 85.5598%. Consider `COc1ccc(OCCn2c(C(C)O)nc3ccccc32)cc1` (stereo not drawn) [CBK269905], for which the “% of control remaining” value amounted to 101.357%. As to `COc1ccc(-c2cc(C(=O)NCc3cccnc3)c3cc(Br)ccc3n2)cc1` [CBK293958], the “% of control remaining” value was 149.507%. As for `O=C(Nc1cccc(C(F)(F)F)c1)c1cnsn1` [CBK018923], the “% of control remaining” value is 121.228%.

Consider `COc1ccc(F)c(C2NC(=O)CCC2N)c1` (stereo not drawn) [CBK282905], for which the “% of control remaining” value was 106.839%.

Turning to `CC(=O)N1CCc2c([nH]c3ccc(Br)cc23)C12CCN(CCCC#N)CC2` [CBK039724], the “% of control remaining” value is listed as 81.878%. With `OCCN(Cc1cccnc1)Cc1cccn1-c1ccccc1F` [CBK283019], the “% of control remaining” value is 114.353%. Take `CC(C)N1CCCC[C@H]2CN(C(=O)C3OCCc4ccccc43)C[C@H]21` (stereo partly drawn) [CBK285511]: the “% of control remaining” value was 89.6549%.

Take `N[C@H]1CO[C@H]2[C@@H]1OC[C@@H]2n1cc(-c2ccccc2)nn1` [CBK289502]: the “% of control remaining” value came to 123.9%. Under `O=C(Oc1cccc2cnccc12)c1ccccc1` [CBK022889C] stands 86.8653%; under `Cc1ccc(Nc2cncc(-c3ccc(O)cc3)n2)cc1Cl` [CBK107802], 103.926%. For `COc1ccccc1-c1cc(C(=O)NCCCN2CCOCC2)c2ccccc2n1` [CBK267780], the “% of control remaining” value was found to be 142.34%. Under `Cc1n[nH]c(O)c1C(c1ccc(OC(=O)c2c(F)cccc2F)cc1)c1c(C)n[nH]c1O` [CBK265136] stands 150.012%; under `O=C(Cc1c[nH]c2ccccc12)N1CCC2(CCCN(Cc3cc(=O)[nH]c(=O)[nH]3)C2)C1` (stereo not drawn) [CBK132049], 98.0426%. Under `CCCS(=O)(=O)N1CCC2(CCCN(Cc3cccc(F)c3F)C2=O)C1` (stereo not drawn) [CBK306694] stands 148.846%; under `CN1CCCc2ccc(S(=O)(=O)Nc3nc4ncccn4n3)cc21` [CBK305226], 127.957%; under `O=C(Nc1ccc(OC(F)(F)F)cc1)c1nn(-c2ncccn2)c2ccccc12` [CBK048510], 203.425%. Under `CN(C)CCNCc1ccc(-c2cccc(C(=O)O)c2)o1` [CBK287250] stands 110.796%; under `CC(C)n1ncc2c1NC(=O)CC2c1ccc2c(c1)n(C)c(=O)n2C` (stereo not drawn) [CBK287926], 89.4968%. Consider `Cc1cc(C)nc(SCC(=O)N/N=C2/C(=O)Nc3ccccc32)n1` [CBK262883], for which the “% of control remaining” value came to 80.1188%. For `Cc1cc(C(=O)Cn2nc(C(=O)O)c3ccccc3c2=O)c(C)n1Cc1ccccc1Cl` [CBK297504], the “% of control remaining” value is on record as 99.7182%. On to `N#Cc1c(C(F)(F)F)cc(-c2ccncc2)nc1SCCN1CCCCCC1` [CBK267451], for which the “% of control remaining” value was 140.811%.

Turning to `COc1cc(CNc2nc(Br)cn3ccnc23)cc(OC)c1OC` [CBK038060], the “% of control remaining” value was 143.558%. `N#Cc1ccc(-c2cnc(NC(=O)C(F)(F)F)c(-c3ccc(C(=O)N4CCOCC4)cc3)n2)cc1` [CBK093819]: the “% of control remaining” value worked out at 124.931%. `Cc1cc(C)c2c(CC(=O)NNC(=O)COc3ccccc3)coc2c1` [CBK269169]: the “% of control remaining” value is recorded as 159.89%. For `Cc1ccc(OC2(C(=O)N3CCCC3c3nccs3)CCNCC2)cc1` (stereo not drawn) [CBK307539], the “% of control remaining” value came out at 122.927%. As to `CN1CCCc2ccc(S(=O)(=O)NCCc3cn4ccccc4n3)cc21` [CBK306170], the “% of control remaining” value came out at 159.613%. With `CNC(=O)CCCc1[nH]nc(O)c1Cc1c(Cl)cccc1Cl` [CBK085827], the “% of control remaining” value turned out to be 88.297%. In the case of `CCCCc1ccc(-c2cnc3nc(O)ccc3c2)cc1` [CBK081296], the “% of control remaining” value stood at 107.975%. Turning to `CC(Cc1cccs1)NC(=O)c1cccc(-n2cnnc2)c1` (stereo not drawn) [CBK282443], the “% of control remaining” value is reported as 133.536%.

As for `Cc1ccc(NC(=O)COc2cccnc2)c(C)n1` [CBK200379], the “% of control remaining” value turned out to be 140.721%.

On to `CCOC(=O)CN1CCC(Oc2cncc(OCC3COc4ccccc4O3)n2)C1` (stereo not drawn) [CBK084375], for which the “% of control remaining” value was 118.185%. On to `Cc1nnc(SCC(=O)N2CCN(Cc3ccccc3)CC2)s1` [CBK267196], for which the “% of control remaining” value came out at 165.48%. Regarding `Cc1cc(-c2nccnc2NCc2ccccn2)cc(C)c1O` [CBK036921], the “% of control remaining” value is 204.51%. Take `CCC(CC)C(=O)N(C)c1c(C)nc2ccc(C(=O)NCc3ccc(OC)cc3)cn12` [CBK146501]: the “% of control remaining” value turned out to be 157.011%.

Consider `CS(=O)(=O)CCNC(=O)c1cnc(-c2ccc(F)cc2)c(-c2ccco2)c1` [CBK037505], for which the “% of control remaining” value is on record as 161.989%. In the case of `Cn1ccnc1C1(O)CC2CCC(C1)N2C(=O)c1ccco1` (stereo not drawn) [CBK284179], the “% of control remaining” value is 119.815%. With `CC(CN(C)C(=O)Cn1cccc(C(=O)NC2CCCCC2)c1=O)c1ccccc1` (stereo not drawn) [CBK286066], the “% of control remaining” value turned out to be 114.825%. Turning to `C=C(C)CNC(=O)c1cc(-c2ccc(OC)cc2)cnc1NCC1CC1` [CBK076339], the “% of control remaining” value is reported as 97.2198%. Regarding `Cc1ccc(S(=O)(=O)Nc2cc(SCC(=O)O)c(O)c3ccccc23)cc1` [CBK265708], the “% of control remaining” value is 46.501%. As to `COc1ccc(C2N(CCC(=O)O)CCOC23CCN(C(=O)c2ccc4ccccc4c2)CC3)cc1` (stereo not drawn) [CBK115960], the “% of control remaining” value came to 110.329%. For `Cc1ccc(NC(=O)c2cnc(SCc3ccccn3)n(C)c2=O)cc1` [CBK287673] the value was 98.5969%; for `Cc1ccc(C(=O)C(OC(=O)COc2ccccc2C)c2ccccc2)cc1C` (stereo not drawn) [CBK265512], 100%. For the compound `Cc1nn(Cc2c(F)cccc2Cl)c(C)c1NC(=S)Nc1ccc(S(N)(=O)=O)cc1` [CBK267121], the “% of control remaining” value is 91.6749%. For the compound `O=C(NNS(=O)(=O)c1ccc([N+](=O)[O-])cc1)Nc1cccc(C(F)(F)F)c1` [CBK266871], the “% of control remaining” value was 149.025%. Under `C=Cn1cc(CN2CCCC(O)(c3ccc(F)cc3)CC2)c(C)n1` (stereo not drawn) [CBK285398] stands 109.742%; under `COc1ccc2cc(C(=O)N3Cc4cnn(CCO)c4C3)n(C)c2c1` [CBK306707], 97.065%; under `Cc1cccc(C)c1NC(=O)CN1CCC(Oc2cncc(OCC3COc4ccccc4O3)n2)C1` (stereo not drawn) [CBK084373], 80.325%. In the case of `CCCNC(=O)NC1CC(C)(C)Cc2nc(N3CCOCC3)ncc21` (stereo not drawn) [CBK307232], the “% of control remaining” value amounted to 131.225%. As to `C(#Cc1cccc(-c2nc3ccccc3nc2-c2cccc(C#Cc3ccc(Sc4ccccc4)cc3)c2)c1)c1ccc(Sc2ccccc2)cc1` [CBK261158], the “% of control remaining” value is 110.661%. On to `O=C(OCCc1ccncc1)N1CCC(F)(F)CC1` [CBK200158], for which the “% of control remaining” value is recorded as 96.5294%. On to `O=C(CCC1CCCC1)n1ccn(C(c2ccccc2)c2ccccc2)c1=O` [CBK106619], for which the “% of control remaining” value was 143.985%. For the compound `Nc1ccc(-c2cn3ccnc3c(Nc3ccc(Cl)cc3)n2)cc1` [CBK066453], the “% of control remaining” value was 208.082%.
